This note sets out measurements from PMC7279388.

Sequences of proteins named here, by UniProt entry; tags and fusion partners are left off.
UniProt O14744: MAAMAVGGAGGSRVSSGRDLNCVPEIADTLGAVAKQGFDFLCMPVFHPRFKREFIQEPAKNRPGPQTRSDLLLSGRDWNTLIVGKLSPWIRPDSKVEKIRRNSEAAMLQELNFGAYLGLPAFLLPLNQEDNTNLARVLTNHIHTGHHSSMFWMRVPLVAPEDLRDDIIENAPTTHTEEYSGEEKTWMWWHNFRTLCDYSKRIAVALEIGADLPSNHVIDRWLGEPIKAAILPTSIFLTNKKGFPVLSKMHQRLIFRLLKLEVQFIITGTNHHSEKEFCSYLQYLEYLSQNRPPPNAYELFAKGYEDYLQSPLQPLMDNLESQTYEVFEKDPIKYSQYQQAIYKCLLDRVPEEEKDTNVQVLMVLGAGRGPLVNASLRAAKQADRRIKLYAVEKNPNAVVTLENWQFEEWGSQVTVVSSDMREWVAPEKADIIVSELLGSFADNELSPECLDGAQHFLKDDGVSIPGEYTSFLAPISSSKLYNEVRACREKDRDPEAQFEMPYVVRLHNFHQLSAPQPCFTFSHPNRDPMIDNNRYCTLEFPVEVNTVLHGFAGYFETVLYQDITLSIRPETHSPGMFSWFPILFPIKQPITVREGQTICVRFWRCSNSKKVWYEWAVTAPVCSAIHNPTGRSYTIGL
UniProt Q04206: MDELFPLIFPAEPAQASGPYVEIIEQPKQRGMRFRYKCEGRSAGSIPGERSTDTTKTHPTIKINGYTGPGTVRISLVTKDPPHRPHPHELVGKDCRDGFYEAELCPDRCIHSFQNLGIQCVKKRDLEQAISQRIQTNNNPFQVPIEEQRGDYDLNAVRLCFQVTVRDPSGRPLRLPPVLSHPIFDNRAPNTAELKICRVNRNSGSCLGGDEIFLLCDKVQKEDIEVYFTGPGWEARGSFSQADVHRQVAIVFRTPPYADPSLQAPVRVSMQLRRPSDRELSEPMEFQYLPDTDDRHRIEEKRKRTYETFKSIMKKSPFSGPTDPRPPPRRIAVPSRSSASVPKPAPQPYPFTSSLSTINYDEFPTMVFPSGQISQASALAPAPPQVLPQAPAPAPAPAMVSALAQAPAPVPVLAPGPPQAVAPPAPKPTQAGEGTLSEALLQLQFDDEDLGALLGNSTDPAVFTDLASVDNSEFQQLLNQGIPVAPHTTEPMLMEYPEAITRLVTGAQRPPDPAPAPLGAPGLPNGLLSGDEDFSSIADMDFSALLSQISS

For assay [1], the target named is FLAG-WT-PRMT5 (protein arginine methyltransferase 5, wild type) (human) (UniProt O14744). The assay is described as follows: co-IP; FLAG-PRMT5 proteins immunoprecipitated with anti-FLAG-M2 beads from lysates of stable HEK293 and HT29 cells, treated or not with 10 ng/mL IL-1β for 1 h; 1% Triton X-100, 50 mM Tris-HCl pH 7.4, 150 mM NaCl, 1 mM EDTA; 4 °C overnight; Western blot of the partner.

Assay [2] shares this target. The description is as above. This is another data set of the same source.

Like-named read-outs stand apart in the source and are kept apart here. These are yes or no findings as the source states them, for the method shown. In cells and extracts the contact can be indirect. Some entries that bind do so weakly or less than the wild type.

As to “p65 subunit of NF-κB (RelA) (from UniProt Q04206 1-551)”, the binding entry in assay [1] is on record as “binds”.

B1: PKCι (enzyme, UniProt P41743 1-596)
chain: MPTQRDSSTMSHTVAGGGSGDHSHQVRVKAYYRGDIMITHFEPSISFEGLCNEVRDMCSFDNEQLFTMKWIDEEGDPCTVSSQLELEEAFRLYELNKDSELLIHVFPCVPERPGMPCPGEDKSIYRRGARRWRKLYCANGHTFQAKRFNRRAHCAICTDRIWGLGRQGYKCINCKLLVHKKCHKLVTIECGRHSLPQEPVMPMDQSSMHSDHAQTVIPYNPSSHESLDQVGEEKEAMNTRESGKASSSLGLQDFDLLRVIGRGSYAKVLLVRLKKTDRIYAMKVVKKELVNDDEDIDWVQTEKHVFEQASNHPFLVGLHSCFQTESRLFFVIEYVNGGDLMFHMQRQRKLPEEHARFYSAEISLALNYLHERGIIYRDLKLDNVLLDSEGHIKLTDYGMCKEGLRPGDTTSTFCGTPNYIAPEILRGEDYGFSVDWWALGVLMFEMMAGRSPFDIVGSSDNPDQNTEDYLFQVILEKQIRIPRSLSVKAASVLKSFLNKDPKERLGCHPQTGFADIQGHPFFRNVDWDMMEQKQVVPPFKPNISGEFGLDNFDSQFTNEPVQLTPDDDDIVRKIDQSEFEGFEYINPLLMSAEECV
In the case of B1, the binding result in assay [2] was “binds”.
